According to patent US20210155689A1 (SHANGHAI PHARMAEXPLORER, published 2021):
Results are given in words; binding and its absence hold for the method and conditions named. Some entries that bind do so weakly or less than the wild type.

Target: T1, human LAG-3 ECD (antigen protein of the affinity test) (human) (UniProt P18627)
T1 sequence: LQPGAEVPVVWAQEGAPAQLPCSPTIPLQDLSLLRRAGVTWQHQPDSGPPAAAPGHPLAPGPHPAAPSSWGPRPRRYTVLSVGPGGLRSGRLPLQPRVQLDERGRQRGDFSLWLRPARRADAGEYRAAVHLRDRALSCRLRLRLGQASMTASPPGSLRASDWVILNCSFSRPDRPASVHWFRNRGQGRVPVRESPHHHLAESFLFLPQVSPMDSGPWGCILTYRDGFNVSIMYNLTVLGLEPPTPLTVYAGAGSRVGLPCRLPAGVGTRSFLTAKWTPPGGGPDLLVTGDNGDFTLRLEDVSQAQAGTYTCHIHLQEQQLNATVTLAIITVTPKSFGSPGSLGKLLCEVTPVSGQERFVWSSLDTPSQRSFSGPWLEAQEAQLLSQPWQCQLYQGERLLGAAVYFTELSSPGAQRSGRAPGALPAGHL
Assay: SPR, antibody captured by anti-human Fc IgG on CM5

Binder	binding
105F1E10 (LAG-3 mouse-human chimeric antibody) (antibody, V domains shown) VH: EVQLQQSGPELVKPGASVKMSCRASGYTFTDFKMHWMKQSHGKSLEWIGYIAPNNGGTAYNQKFRGKATLTVNESSNTAYMELRSLTSEDSAVYYCVDWDDVDYWGQGTTLTVSS VL: DIKMTQSPSSMYASLGERVTITCKASQDINSYLSWFQQKSGKSPKTLIYRANRLVDGVPSRFSGSGSGQDYSLTISSLEYEDMGIYYCLQYVEFPLTFGAGTKLELK	binds
405B8H3 (LAG-3 mouse-human chimeric antibody) (antibody, V domains shown, also called mouse-human chimeric antibody 405B8H3) VH: QVQLQQSGAELVRPGASVTLSCKASGYTFTDYEMHWVKQTPVHGLEWIGATDPETGNSAYNQKFKGKAIMTADKSSSTAYMELRSLTSEDSAVYYCISTGWNDWGQGTSLTVSS VL: DIKMTQSPSSMYASLGERVTITCKASQDINSYLSWFQQKPGKSPKTLIYRADRLLDGVPSRFSGSGSGQDYSLTISSLEYGDMGIYYCLQYDEFPYTFGGGTKLEIK	binds
556F6B8 (LAG-3 mouse-human chimeric antibody) (antibody, V domains shown, also called 556F8B8) VH: RVQLKQSGPGLVQPSQSLSITCTVSGFSLIKYGVHWVRQSPGEGLEWLGVIWRGGITDYNAAFMSRLSITKDNSKSQVFFKMNSLQADDTAIYYCAKWDGPLAMDYWGQGTSVTVSS VL: DIVMTQSHKFLSTSVGDRVSITCKASQDVGTTVAWYQQKPGQSPKLLIYWASTRHTGVPDRFTGSGSGTDFTLTISNVQSEDLADYFCQQYSSYPYTFGGGTKLEIK	binds
405B8H3-2 humanized antibody (antibody, V domains shown) VH: QVQLVQSGAEVKKPGASVKVSCKASGYTFTDYEMHWVRQAPGQGLEWMGATDPETGNSAYNQKFKGRVTMTADKSTSTVYMELSSLRSEDTAVYYCISTGWNDWGQGTTVTVSS VL: DIQMTQSPSSLSASVGDRVTITCKASQDINSYLSWFQQKPGKAPKSLIYRADRLLDGVPSRFSGSGSGTDFTLTISSLQPEDFATYYCLQYDEFPYTFGQGTKLEIK	binds
405B8H3-1 humanized antibody (antibody, V domains shown) VH: QVQLVQSGAEVKKPGASVKVSCKASGYTFTDYEMHWVRQAPGQGLEWMGATDPETGNSAYNQKFKGRVTMTRDTSTSTVYMELSSLRSEDTAVYYCISTGWNDWGQGTTVTVSS VL: DIQMTQSPSSLSASVGDRVTITCKASQDINSYLSWFQQKPGKAPKSLIYRADRLLDGVPSRFSGSGSGTDFTLTISSLQPEDFATYYCLQYDEFPYTFGQGTKLEIK	binds
405B8H3-7 humanized antibody (antibody, V domains shown) VH: QVQLVQSGAEVKKPGASVKVSCKASGYTFTDYEMHWVRQAPGQGLEWIGATDPETGNSAYNQKFKGRATMTADKSTSTAYMELSSLRSEDTAVYYCISTGWNDWGQGTTVTVSS VL: DIQMTQSPSSLSASVGDRVTITCKASQDINSYLSWFQQKPGKAPKSLIYRADRLLDGVPSRFSGSGSGQDYTLTISSLQPEDFATYYCLQYDEFPYTFGQGTKLEIK	binds
405B8H3-6 humanized antibody (antibody, V domains shown) VH: QVQLVQSGAEVKKPGASVKVSCKASGYTFTDYEMHWVRQAPGQGLEWMGATDPETGNSAYNQKFKGRVTMTADKSTSTVYMELSSLRSEDTAVYYCISTGWNDWGQGTTVTVSS VL: DIQMTQSPSSLSASVGDRVTITCKASQDINSYLSWFQQKPGKAPKSLIYRADRLLDGVPSRFSGSGSGQDYTLTISSLQPEDFATYYCLQYDEFPYTFGQGTKLEIK	binds
556F6B8-3 humanized antibody (antibody, V domains shown) VH: QVQLQESGPGLVKPSETLSLTCTVSGFSLIKYGVHWIRQPPGKGLEWIGVIWRGGITDYNAAFMSRVTISKDTSKSQVSLKLSSVTAADTAVYYCARWDGPLAMDYWGQGTTVTVSS VL: DIQLTQSPSFLSASVGDRVTITCKASQDVGTTVAWYQQKPGKAPKLLIYWASTRHTGVPSRFSGSGSGTEFTLTISSLQPEDFATYYCQQYSSYPYTFGQGTKLEIK	binds
556F6B8-7 humanized antibody (antibody, V domains shown) VH: QVQLQESGPGLVKPSETLSLTCTVSGFSLIKYGVHWIRQPPGKGLEWIGVIWRGGITDYNAAFMSRVTISKDTSKSQVSLKLSSVTAADTAVYYCARWDGPLAMDYWGQGTTVTVSS VL: DIVLTQSPSFLSASVGDRVTITCKASQDVGTTVAWYQQKPGKAPKLLIYWASTRHTGVPSRFSGSGSGTEFTLTISSLQPEDFATYYCQQYSSYPYTFGQGTKLEIK	binds
